Reference: article PMC8583208

Amino acid sequences for entries named in this document (tags omitted).
UniProt Q8LFJ6: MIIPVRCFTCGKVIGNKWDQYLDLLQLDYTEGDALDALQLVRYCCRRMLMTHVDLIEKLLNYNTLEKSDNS

Experiments:
[1] = target: T1, Arabidopsis RNA polymerase III subunit NRPC2 (Arabidopsis thaliana) (UniProt F4KD38); assay: two-hybrid; CDS of the RNAPIII subunits in pGBKT7 (yeast strain Y2HGold) and in pGADT7 (yeast strain Y187); growth at three dilutions on SD medium lacking Trp, Leu, His and Ade, with SD lacking Trp and Leu as control
T1 sequence: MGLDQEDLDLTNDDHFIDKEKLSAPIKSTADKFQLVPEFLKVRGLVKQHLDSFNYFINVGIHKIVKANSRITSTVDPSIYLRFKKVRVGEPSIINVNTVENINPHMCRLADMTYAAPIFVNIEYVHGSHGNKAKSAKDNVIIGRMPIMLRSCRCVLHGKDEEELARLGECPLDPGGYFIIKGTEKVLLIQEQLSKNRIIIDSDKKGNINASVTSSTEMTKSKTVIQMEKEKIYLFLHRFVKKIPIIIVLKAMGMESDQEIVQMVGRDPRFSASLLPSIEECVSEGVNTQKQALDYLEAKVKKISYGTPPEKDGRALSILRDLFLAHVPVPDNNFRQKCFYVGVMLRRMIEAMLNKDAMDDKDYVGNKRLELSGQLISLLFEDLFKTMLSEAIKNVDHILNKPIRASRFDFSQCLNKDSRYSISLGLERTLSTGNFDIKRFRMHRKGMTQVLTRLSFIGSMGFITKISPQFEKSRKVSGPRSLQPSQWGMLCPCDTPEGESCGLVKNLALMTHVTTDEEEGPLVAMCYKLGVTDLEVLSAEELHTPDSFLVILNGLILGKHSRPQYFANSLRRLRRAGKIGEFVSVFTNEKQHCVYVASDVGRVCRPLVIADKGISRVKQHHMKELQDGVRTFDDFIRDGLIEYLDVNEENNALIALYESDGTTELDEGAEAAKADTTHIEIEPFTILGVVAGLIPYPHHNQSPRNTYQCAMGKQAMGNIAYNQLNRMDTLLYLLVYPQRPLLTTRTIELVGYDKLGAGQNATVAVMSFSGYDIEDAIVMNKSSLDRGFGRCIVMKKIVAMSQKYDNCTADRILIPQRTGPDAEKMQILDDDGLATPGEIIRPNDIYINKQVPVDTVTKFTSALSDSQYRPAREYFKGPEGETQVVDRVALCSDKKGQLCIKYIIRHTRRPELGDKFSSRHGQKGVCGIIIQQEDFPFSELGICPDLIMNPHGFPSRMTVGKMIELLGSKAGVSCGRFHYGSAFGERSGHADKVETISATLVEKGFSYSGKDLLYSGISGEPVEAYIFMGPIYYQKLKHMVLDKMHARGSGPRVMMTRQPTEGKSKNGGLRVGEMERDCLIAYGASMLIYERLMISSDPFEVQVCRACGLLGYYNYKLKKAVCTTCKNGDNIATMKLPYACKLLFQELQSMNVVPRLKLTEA

[2] = target: Arabidopsis RNA polymerase III subunit NRPC3 (Arabidopsis thaliana) (UniProt F4IWP6); assay: as above

| Substance | binding [1] | binding [2] |
| --- | --- | --- |
| Arabidopsis RNA polymerase III subunit NRPC8 | binds |  |
| Arabidopsis RNA polymerase III subunit NRPC10 | binds |  |
| Arabidopsis RNA polymerase subunit NRPABC3 | binds |  |
| Arabidopsis RNA polymerase subunit NRPABC5 (from UniProt Q8LFJ6 1-71) |  | binds |

These are yes or no findings as the source states them, for the method shown. Binding can be weak; no strength is given.
